This passage reports binding results from article PMC2923609.

Sequences of proteins named here, by UniProt entry; tags and fusion partners are left off. Residues count along the entry.
UniProt Q01705, residues 19-2531: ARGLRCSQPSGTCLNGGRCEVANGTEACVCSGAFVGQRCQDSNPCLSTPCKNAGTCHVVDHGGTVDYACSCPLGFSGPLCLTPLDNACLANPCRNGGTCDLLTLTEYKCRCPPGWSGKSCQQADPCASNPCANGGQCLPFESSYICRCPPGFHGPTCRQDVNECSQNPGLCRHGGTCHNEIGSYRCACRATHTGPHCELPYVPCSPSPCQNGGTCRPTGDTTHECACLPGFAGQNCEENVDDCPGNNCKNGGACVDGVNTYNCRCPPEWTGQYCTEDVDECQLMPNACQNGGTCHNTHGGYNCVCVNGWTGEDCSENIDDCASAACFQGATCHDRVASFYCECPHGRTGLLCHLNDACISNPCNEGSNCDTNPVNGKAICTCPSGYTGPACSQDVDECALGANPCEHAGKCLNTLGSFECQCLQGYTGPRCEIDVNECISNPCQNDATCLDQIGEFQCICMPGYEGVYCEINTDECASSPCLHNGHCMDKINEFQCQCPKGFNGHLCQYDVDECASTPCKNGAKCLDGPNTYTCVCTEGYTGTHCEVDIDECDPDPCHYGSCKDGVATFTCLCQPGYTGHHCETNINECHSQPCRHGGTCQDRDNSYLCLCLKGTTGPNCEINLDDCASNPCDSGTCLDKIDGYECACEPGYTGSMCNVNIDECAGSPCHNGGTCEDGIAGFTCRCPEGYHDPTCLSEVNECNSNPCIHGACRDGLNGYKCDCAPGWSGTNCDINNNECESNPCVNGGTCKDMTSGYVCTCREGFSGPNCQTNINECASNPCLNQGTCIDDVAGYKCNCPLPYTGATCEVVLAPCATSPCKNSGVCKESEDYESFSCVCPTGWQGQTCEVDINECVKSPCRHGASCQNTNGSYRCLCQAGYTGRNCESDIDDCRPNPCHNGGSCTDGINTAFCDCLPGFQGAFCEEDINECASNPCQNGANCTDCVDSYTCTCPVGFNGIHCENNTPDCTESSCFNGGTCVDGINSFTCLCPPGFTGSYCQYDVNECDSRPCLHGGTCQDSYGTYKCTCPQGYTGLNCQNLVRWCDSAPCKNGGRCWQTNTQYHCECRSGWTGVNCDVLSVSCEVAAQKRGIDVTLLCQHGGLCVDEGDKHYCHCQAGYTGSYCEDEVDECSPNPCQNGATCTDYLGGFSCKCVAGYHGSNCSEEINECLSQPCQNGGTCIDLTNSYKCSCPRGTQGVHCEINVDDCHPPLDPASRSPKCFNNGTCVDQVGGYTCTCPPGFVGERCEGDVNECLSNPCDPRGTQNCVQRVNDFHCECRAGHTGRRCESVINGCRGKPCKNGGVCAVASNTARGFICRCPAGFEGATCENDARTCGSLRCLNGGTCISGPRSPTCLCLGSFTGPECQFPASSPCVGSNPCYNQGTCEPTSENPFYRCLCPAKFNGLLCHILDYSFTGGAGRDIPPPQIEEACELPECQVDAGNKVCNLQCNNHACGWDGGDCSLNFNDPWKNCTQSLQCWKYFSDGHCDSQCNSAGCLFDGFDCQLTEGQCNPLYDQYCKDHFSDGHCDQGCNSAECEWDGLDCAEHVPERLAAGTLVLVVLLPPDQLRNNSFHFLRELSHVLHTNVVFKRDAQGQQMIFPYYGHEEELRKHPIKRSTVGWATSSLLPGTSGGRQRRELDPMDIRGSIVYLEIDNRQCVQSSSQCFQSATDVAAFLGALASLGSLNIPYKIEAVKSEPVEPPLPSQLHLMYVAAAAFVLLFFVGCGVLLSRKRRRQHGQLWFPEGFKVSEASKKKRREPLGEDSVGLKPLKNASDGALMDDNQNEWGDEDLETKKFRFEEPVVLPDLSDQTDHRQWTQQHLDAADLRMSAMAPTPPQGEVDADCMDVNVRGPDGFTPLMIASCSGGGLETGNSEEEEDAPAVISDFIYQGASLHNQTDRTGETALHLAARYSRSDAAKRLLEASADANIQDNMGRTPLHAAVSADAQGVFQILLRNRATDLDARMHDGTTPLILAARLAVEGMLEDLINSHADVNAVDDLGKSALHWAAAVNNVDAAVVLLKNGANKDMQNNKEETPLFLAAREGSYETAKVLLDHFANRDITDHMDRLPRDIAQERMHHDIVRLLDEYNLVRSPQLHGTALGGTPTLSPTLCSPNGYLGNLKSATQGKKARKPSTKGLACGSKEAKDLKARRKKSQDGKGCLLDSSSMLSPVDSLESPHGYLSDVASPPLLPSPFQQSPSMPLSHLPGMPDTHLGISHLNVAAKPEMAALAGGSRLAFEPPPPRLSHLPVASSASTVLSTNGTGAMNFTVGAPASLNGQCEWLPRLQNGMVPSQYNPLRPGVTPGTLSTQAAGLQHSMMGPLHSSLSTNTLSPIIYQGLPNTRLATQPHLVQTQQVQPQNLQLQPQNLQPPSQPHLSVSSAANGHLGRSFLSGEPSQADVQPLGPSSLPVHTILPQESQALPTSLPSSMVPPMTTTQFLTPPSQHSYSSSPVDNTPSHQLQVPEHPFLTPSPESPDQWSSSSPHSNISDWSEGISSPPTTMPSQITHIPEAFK

No constants are given. Whether binding was seen depends on the method and setting. Binding seen in cells or lysates may run through a third protein. Some results given as binding are weak or reduced against the parent protein; the word gives no strength. For some assays here: Tags and fused reporters may be left off the sequences shown.

Test [1] deals with T1, periostin-Myc (UniProt Q62009).
T1 sequence: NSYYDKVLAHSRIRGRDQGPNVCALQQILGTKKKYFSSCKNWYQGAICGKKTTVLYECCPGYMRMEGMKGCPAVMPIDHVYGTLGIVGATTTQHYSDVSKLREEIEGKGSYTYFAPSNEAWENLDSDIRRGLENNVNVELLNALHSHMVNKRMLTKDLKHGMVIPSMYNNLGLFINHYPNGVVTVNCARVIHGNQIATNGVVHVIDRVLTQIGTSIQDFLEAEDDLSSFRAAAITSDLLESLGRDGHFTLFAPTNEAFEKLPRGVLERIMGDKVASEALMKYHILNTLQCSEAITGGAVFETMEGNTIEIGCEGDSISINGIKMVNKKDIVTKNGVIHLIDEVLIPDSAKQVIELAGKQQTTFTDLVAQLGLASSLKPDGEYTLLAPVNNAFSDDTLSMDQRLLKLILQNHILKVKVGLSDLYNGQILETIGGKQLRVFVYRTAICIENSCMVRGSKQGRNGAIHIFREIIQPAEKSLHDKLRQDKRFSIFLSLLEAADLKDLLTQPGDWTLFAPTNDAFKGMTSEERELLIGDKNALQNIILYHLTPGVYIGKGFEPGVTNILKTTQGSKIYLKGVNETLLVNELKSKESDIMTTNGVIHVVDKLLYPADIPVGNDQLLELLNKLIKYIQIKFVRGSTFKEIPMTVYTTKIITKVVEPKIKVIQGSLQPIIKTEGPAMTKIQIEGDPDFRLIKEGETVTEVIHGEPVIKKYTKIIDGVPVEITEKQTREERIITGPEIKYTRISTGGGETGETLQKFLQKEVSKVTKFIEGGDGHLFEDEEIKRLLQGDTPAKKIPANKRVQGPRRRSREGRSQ
The experiment in a line: co-IP; whole-cell lysates of HEK293T cells co-expressing Notch1-FLAG and periostin-Myc; precipitated with anti-Myc antibody, blotted with anti-Notch1 (extracellular region) antibody; lysis buffer 150 mM NaCl, 100 mM Tris-Cl pH 7.4, 1% Triton X-100, 0.5% NP-40.

For test [2], the target named is Notch1-FLAG precursor (300 kDa) (UniProt Q01705). The experiment in a line: co-IP; whole-cell lysates of HEK293T cells co-expressing Notch1-FLAG and periostin; precipitated with anti-FLAG antibody, blotted with anti-periostin antibody; lysis buffer 150 mM NaCl, 100 mM Tris-Cl pH 7.4, 1% Triton X-100, 0.5% NP-40.

For the molecule “Notch1-FLAG precursor (300 kDa) (from UniProt Q01705 19-2531) (receptor)”, the binding result in test [1] was “binds”.

B1: periostin (protein, UniProt Q62009 24-838)
chain: NSYYDKVLAHSRIRGRDQGPNVCALQQILGTKKKYFSSCKNWYQGAICGKKTTVLYECCPGYMRMEGMKGCPAVMPIDHVYGTLGIVGATTTQHYSDVSKLREEIEGKGSYTYFAPSNEAWENLDSDIRRGLENNVNVELLNALHSHMVNKRMLTKDLKHGMVIPSMYNNLGLFINHYPNGVVTVNCARVIHGNQIATNGVVHVIDRVLTQIGTSIQDFLEAEDDLSSFRAAAITSDLLESLGRDGHFTLFAPTNEAFEKLPRGVLERIMGDKVASEALMKYHILNTLQCSEAITGGAVFETMEGNTIEIGCEGDSISINGIKMVNKKDIVTKNGVIHLIDEVLIPDSAKQVIELAGKQQTTFTDLVAQLGLASSLKPDGEYTLLAPVNNAFSDDTLSMDQRLLKLILQNHILKVKVGLSDLYNGQILETIGGKQLRVFVYRTAICIENSCMVRGSKQGRNGAIHIFREIIQPAEKSLHDKLRQDKRFSIFLSLLEAADLKDLLTQPGDWTLFAPTNDAFKGMTSEERELLIGDKNALQNIILYHLTPGVYIGKGFEPGVTNILKTTQGSKIYLKGVNETLLVNELKSKESDIMTTNGVIHVVDKLLYPADIPVGNDQLLELLNKLIKYIQIKFVRGSTFKEIPMTVYTTKIITKVVEPKIKVIQGSLQPIIKTEGPAMTKIQIEGDPDFRLIKEGETVTEVIHGEPVIKKYTKIIDGVPVEITEKQTREERIITGPEIKYTRISTGGGETGETLQKFLQKEVSKVTKFIEGGDGHLFEDEEIKRLLQGDTPAKKIPANKRVQGPRRRSREGRSQ
Regarding B1, in test [2], the binding result was “binds”.
